In all, about 1,400 compounds went through this assay and fewer than 10 were called active.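 Rule for the calls: active = fluorescence-lowering compounds whose fitted half-maximal concentration is at or below ten times the highest valid dose tested; inconclusive = flat curve at 30 to 70% inhibition, or poor fit; inactive = the rest.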 Some of the results follow.

Protein sequences, listed by entry. Tags and fused reporters are not part of them. Lines headed by an entry give the natural chain unless they say otherwise; changes in a name come on top.
UniProt O15379: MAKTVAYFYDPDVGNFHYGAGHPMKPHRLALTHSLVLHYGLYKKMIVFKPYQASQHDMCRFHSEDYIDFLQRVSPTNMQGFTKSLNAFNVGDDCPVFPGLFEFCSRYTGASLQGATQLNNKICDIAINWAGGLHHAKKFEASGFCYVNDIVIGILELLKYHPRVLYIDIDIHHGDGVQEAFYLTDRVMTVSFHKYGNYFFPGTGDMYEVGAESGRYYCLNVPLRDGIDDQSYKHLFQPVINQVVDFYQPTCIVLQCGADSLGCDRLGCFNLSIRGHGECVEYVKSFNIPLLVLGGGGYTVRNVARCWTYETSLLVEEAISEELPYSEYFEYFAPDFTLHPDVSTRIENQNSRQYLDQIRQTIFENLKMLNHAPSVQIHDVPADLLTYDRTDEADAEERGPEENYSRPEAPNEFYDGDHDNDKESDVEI

In the assay the target is Histone deacetylase 3 (Homo sapiens) (UniProt O15379). Briefly: inhibition of human HDAC3 enzymatic activity – biochemical, fluorescence, cherry-picked samples, counter-screen for JMJD2C/GASC1 demethylase inhibitor project, dose response (AID 485318).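 Note: enzyme preincubated with compound before substrate and trypsin were added; 0% = neutral control wells and -100% = SAHA positive control wells.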 Conditions: recombinant HDAC3, fluorogenic peptide/trypsin coupled; at 12 µM (top of the series).
As to `O=C1NC(=O)C(C(CC(=O)c2ccccc2)c2ccccc2)C(=O)N1` (stereo not given), the activity change, negative = inhibition is inactive: -0.623%.

For `CCCCCSc1cc(O)c(C(CNC)C(C)C)cc1OC` (stereo not given), the activity change, negative = inhibition is inactive: 0.059%.

Regarding `CC(C)(C)[C@]1(O)C[C@@H]2OC(=O)C[C@@]23C(=O)O[C@@H]2OC(=O)[C@@H](O)C213` (stereo not given in full), the activity change, negative = inhibition is inactive: -0.801%.

Regarding `Cc1sc2c(c1C)C(c1ccc(C(C)(C)C)cc1)=NCC(=O)N2CC(=O)Nc1nccs1`, the activity change, negative = inhibition is inactive: 1.43%.

Turning to `O=C(c1cccs1)N1C2CCC1CC(O)(c1cccnc1)C2` (stereo not given), the activity change, negative = inhibition was inactive: 0.482%.

Turning to `C=CCn1c(C)c(C=C2C(=O)NC(=O)NC2=O)c2ccccc21`, the activity change, negative = inhibition was inactive: -0.0299%.

For `COc1cccc(N2C(=O)NC(=O)/C(=C/c3ccc4c(c3)Cc3ccccc3-4)C2=O)c1`, the activity change, negative = inhibition was inactive: 0.465%.

On to `CN(C)[C@@H]1C(=O)C(C(N)=O)=C(O)[C@@]2(O)C(=O)C3=C(O)c4c(O)cccc4[C@@](C)(O)C3C[C@@H]12` (stereo not given in full), for which the activity change, negative = inhibition was inactive: 0.269%.

With `CN1C(=O)C(Cc2ccsc2)C(=O)N(C)C1=O`, the activity change, negative = inhibition was inactive: 0.433%.

Regarding `N#CC(C#N)=Cc1ccc(O)c(O)c1`, the activity change, negative = inhibition was inactive: 0.633%.

In the case of `CCOC(=O)C1=CC(=C2C(=O)N(CC)C(=S)N(CC)C2=O)c2ccccc2O1`, the activity change, negative = inhibition was inactive: 0.0133%.

As to `C=CCC1C(=O)NC(=S)NC1=O`, the activity change, negative = inhibition is inactive: -0.29%.

In the case of `O=C1NC(=O)N(Cc2ccc(F)cc2)C(=O)/C1=C\C=C\c1ccco1`, the activity change, negative = inhibition is inactive: -0.446%.

`CCCCOc1ccc(CC2C(=O)N(C)C(=O)N(C)C2=O)cc1`: the activity change, negative = inhibition is inactive: -0.273%.

As for `CN1CCN(c2ccc(C=O)cc2)CC1`, the activity change, negative = inhibition is inactive: -0.0296%.

`Cc1ccc2c(c1)=C/C(=C\c1c(O)[nH]c(=O)[nH]c1=O)C(=O)N=2`: the activity change, negative = inhibition is inactive: 0.967%.

For the molecule `O=C(N=Nc1c(O)[nH]c(=O)[nH]c1=O)C1COc2ccccc2O1` (stereo not given), the activity change, negative = inhibition is inactive: 0.00951%.

Regarding `CC1(C)CC(=O)C(C2(O)C(=O)NC(=O)NC2=O)=C(O)C1`, the activity change, negative = inhibition was inactive: 0.491%.

For `CN1C(=O)C(=Cc2ccc(N3CCCCCC3)cc2)C(=O)N(C)C1=O`, the activity change, negative = inhibition was inactive: 0.121%.

On to `Cc1cccc(N2C(=O)NC(=O)/C(=C/c3ccc(N4CCOCC4)cc3)C2=O)c1`, for which the activity change, negative = inhibition was inactive: -0.336%.

Values taken from PubChem BioAssay AID485318 (Broad Institute, 2010).
